For some of these results: Some peptides are written in HELM: one residue between dots, names in brackets for other building blocks, links after the first $.
Key:
[1] = general procedure: Fmoc solid-phase peptide synthesis; Fmoc-Rink amide-MBHA resin; Sieber resin for reduced-bond analogues; conditions: for isolated yield: whole synthesis; for step yield: late stage modification step
[2] = general procedure: Fmoc solid-phase peptide synthesis; Fmoc-Rink Amide MBHA resin; conditions: whole synthesis
[3] = general procedure: Fmoc solid-phase peptide synthesis; Sieber resin; conditions: whole synthesis
[4] = general procedure: Fmoc solid-phase peptide synthesis; Fmoc-Rink amide-MBHA resin; conditions: whole synthesis

| Substance | isolated yield [1] [%] | step yield [1] [%] | also measured |
| --- | --- | --- | --- |
| D-Phe-Gln-Trp-Ala-Tle-Gly-His-Leu-Thz-NH2 | 26 | – | – |
| D-Phe-Gln-Trp-Ala-Val-Gly-His-Leu-Thz-NH2 | 41 | – | – |
| D-Phe-Gln-Trp-Ala-Val-Gly-NMe-His-Leu-Thz-NH2 | 29 | – | – |
| DOTA- Pip-D-Phe-Gln-5-Me-Trp-Ala-Val-Gly-His-Leu-Thz-NH2 | 19 | – | – |
| DOTA-Cysteic acid-Pip-D-2-Nal-Gln-Trp-Ala-Val-Gly-His-Leu-ψ-Thz-NH2 | 14 | – | – |
| DOTA-Pip-D-2-Nal-Gln-Trp-Ala-Val-Gly-His-Leu-Thz-NH2 | – | – | isolated yield [2]: 38% yield |
| DOTA-Pip-D-Phe-Gln-2-Me-Trp-Ala-Val-Gly-His-Leu-Thz-NH2 | 16 | – | – |
| DOTA-Pip-D-Phe-Gln-7-F-Trp-Ala-Val-Gly-His-Leu-Thz-NH2 | 33 | – | – |
| DOTA-Pip-D-Phe-Gln-Trp-Ala-Tle-Gly-His-Leu-Thz-NH2 | 26 | – | – |
| DOTA-Pip-D-Phe-Gln-Trp-Ala-Tle-Gly-His-LeuψThz-NH2 | – | – | isolated yield [3]: 32% |
| DOTA-Pip-D-Phe-Gln-Trp-Ala-Tle-Gly-NMe-His-Leu-Thz-NH2 | 11 | – | – |
| DOTA-Pip-D-Phe-Gln-Trp-Ala-Tle-N-Me-Gly-His-LeuψThz-NH2 | – | – | isolated yield [3]: 17% |
| DOTA-Pip-D-Phe-Gln-Trp-Ala-Val-Gly-His-Leu-Thz-NH2 | – | – | isolated yield [2]: 30% yield |
| DOTA-Pip-D-Phe-Gln-Trp-Ala-Val-Gly-His-Phe-Thz-NH2 | – | – | isolated yield [4]: 31% |
| DOTA-Pip-D-Phe-Gln-Trp-Ala-Val-Gly-NMe-His-Leu-Thz-NH2 | 19 | – | – |
| DOTA-Pip-D-Phe-Gln-Trp-Ala-Val-N-MeGly-His-LeuψPro-NH2 | – | – | isolated yield [3]: 37% |
| DOTA-Pip-D-Phe-Gln-αMe-Trp-Ala-Tle-Gly-His-LeuψThz-NH2 | – | – | isolated yield [3]: 7.7% |
| DOTA-Pip-D-Phe-His-Trp-Ala-Tle-Gly-NMe-His-Leu-Thz-NH2 | 17 | – | – |
| DOTA-Pip-D-Phe-His-Trp-Ala-Val-Gly-His-LeuψThz-NH2 | – | – | isolated yield [3]: 35% |
| Ga-LW01025: DOTA-Pip-D-Phe-Gln-Trp-Ala-Val-Gly-His-Leu-Thz-NH2 | – | 82 | – |
| Ga-LW01029: DOTA-Pip-D-2-Nal-Gln-Trp-Ala-Val-Gly-H is-Leu-Thz-NH2 | – | 63 | – |
| Ga-LW01045: DOTA-Pip-D-Phe-Gln-Trp-Ala-Val-Gly-His-Leu-ψ-Thz-NH2 | – | 72 | – |
| Ga-LW01059: DOTA-Pip-D-2-Nal-Gln-Trp-Ala-Val-Gly-His-Leu-ψ-Thz-NH2 | – | 67 | – |

| Substance | isolated yield [1] [%] | step yield [1] [%] | also measured |
| --- | --- | --- | --- |
| Ga-LW01090: DOTA-Pip-D-Phe-Gln-Trp-Ala-Val-NMe-Gly-His-Leu-ψ-Thz-NH2 | – | 75 | – |
| Ga-LW01102: DOTA-Pip-D-Phe-His-Trp-Ala-Val-Gly-His-LeuψThz-NH2 | – | 43 | – |
| Ga-LW01107: DOTA-Pip-D-Phe-Gln-Trp-Ala-Val-Gly-NMe-His-Leu-Thz-NH2 | – | 73 | – |
| Ga-LW01108: DOTA-Pip-D-Phe-Gln-Trp-Ala-Tle-Gly-His-Leu-Thz-NH2 | – | 59 | – |
| Ga-LW01110: DOTA-Pip-D-Phe-Gln-Trp-Ala-Tle-Gly-NMe-His-Leu-Thz-NH2 | – | 54 | – |
| Ga-LW01117: DOTA-Cysteic acid-Pip-D-2-Nal-Gln-Trp-Ala-Val-Gly-His-Leu-ψ-Thz-NH2 | – | 57 | – |
| Ga-LW01142: DOTA-Pip-D-Phe-His-Trp-Ala-Tle-Gly-NMe-His-Leu-Thz-NH2 | – | 53 | – |
| Ga-LW01158: DOTA-Pip-D-Phe-Gln-Trp-Ala-Tle-Gly-His-LeuψThz-NH2 | – | 76 | – |
| Ga-LW01186: DOTA-Pip-D-Phe-Gln-αMe-Trp-Ala-Tle-Gly-His-LeuψThz-NH2 | – | 81 | – |
| Ga-LW02002: DOTA-Pip-D-Phe-Gln-Trp-Ala-Tle-N-Me-Gly-His-LeuψThz-NH2 | – | 77 | – |
| Ga-LW02021: DOTA-Pip-D-Phe-Gln-7-F-Trp-Ala-Val-Gly-His-Leu-Thz-NH2 | – | 82 | – |
| Ga-LW02023: DOTA-Pip-D-Phe-Gln-5-Me-Trp-Ala-Val-Gly-His-Leu-Thz-NH2 | – | 84 | – |
| Ga-LW02025: DOTA-Pip-D-Phe-Gln-2-Me-Trp-Ala-Val-Gly-His-Leu-Thz-NH2 | – | 81 | – |
| LW01090: DOTA-Pip-D-Phe-Gln-Trp-Ala-Val-NMe-Gly-His-Leu-ψ-Thz-NH2 | 32 | – | – |
| Lu-LW01090: DOTA-Pip-D-Phe-Gln-Trp-Ala-Val-NMe-Gly-His-Leu-ψ-Thz-NH2 | – | 47 | – |
| Lu-LW01110: DOTA-Pip-D-Phe-Gln-Trp-Ala-Tle-Gly-NMe-His-Leu-Thz-NH2 | – | 88 | – |
| Lu-LW01142: DOTA-Pip-D-Phe-His-Trp-Ala-Tle-Gly-NMe-His-Leu-Thz-NH2 | – | 61 | – |
| PEPTIDE1{[DOTA].[PipAc].[d2Nal].Q.W.A.V.G.H.[LeuR].[Thz].[am]}$$$$V2.0 | 49 | – | – |
| PEPTIDE1{[DOTA].[PipAc].[dF].Q.W.A.V.G.H.[LeuR].[Thz].[am]}$$$$V2.0 | 34 | – | – |
| PEPTIDE1{[DOTA].[PipAc].[dTpi].Q.W.A.V.G.H.[LeuR].[Thz].[am]}$$$$V2.0 | 38 | – | – |
| PEPTIDE1{[dF].Q.[Trp(2-Me)].A.V.G.H.L.[Thz].[am]}$$$$V2.0 | 23 | – | – |
| PEPTIDE1{[dF].Q.[Trp(5-Me)].A.V.G.H.L.[Thz].[am]}$$$$V2.0 | 33 | – | – |
| PEPTIDE1{[dF].Q.[Trp(7-F)].A.V.G.H.L.[Thz].[am]}$$$$V2.0 | 24 | – | – |

Reference: US12246076B2 (PROVINCIAL HEALTH SERVICES AUTHORITY, priority 2022, dated 2025)
